This list was built around the results that the source calls inconclusive (neither active nor inactive); the mix of calls is not that of the screen. Calls follow the shape of the dose curve; as a rule, active = well fitted inhibition curve with a large enough effect; inconclusive = small, poorly fitted or top-dose-only effect; inactive = flat fitted curve, though single readings scatter. A potency beside an inconclusive call is a rough fit, not a confirmed value.
Experiment: Quantitative high throughput screen to test activity of anti-malarial compounds in the Dd2 strain of Plasmodium Falciparum
Conditions: P. falciparum Dd2 in RBCs, SYBR Green growth, 72 h
Description: NIH Molecular Libraries Probe Production Network [MLPCN] NIH Chemical Genomics Center [NCGC] MLPCN Grant: R21 NS059500 Assay Provider: David Fidock and Eric Ekland, Columbia University The goal of this screen is to measure the ability of a set of anti-malarial compounds to inhibit the Dd2 strain of P. falciparum. These compounds have been screened in a delayed death phenotype assay and have been identified as inhibitors of the delated death phenotype, by inhibiting the development of the apicoplast in the malarial parasite Plasmodium falciparum (described below) The biochemical processes that make this organelle essential for erythrocytic stage parasites are not well understood. However, antibiotics, such as azithromycin and tetracycline, which target the apicoplast translational machinery, have a potent antimalarial effect. […] We have developed a cell-based assay that measures parasite growth based on the expression of an integrated copy of a firefly luciferase reporter. To detect small molecules that cause this 'delayed death' phenotype, erythrocytes infected with the luciferase-expressing parasites were incubated with compounds for either one or two generations, corresponding to 48 and 96 hours, respectively. […] Growth inhibition is detected by a decrease in luciferase activity […]

In the case of `COCCOC(=O)N(C)C[C@@H]1OCCCC[C@H](C)Oc2ccc(NC(=O)Nc3ccccc3)cc2C(=O)N([C@@H](C)CO)C[C@H]1C`, the Potency is reported as inconclusive: 17.9 µM [inhibitor, partial curve].

Reference: PubChem BioAssay AID504604 (National Center for Advancing Translational Sciences (NCATS), 2011)
